Values from PubChem BioAssay AID1259308 (NCATS, 2017).
Shown is a random part of about 59,000 deposited reagents. In the full data, about 1,510 (2.6%) are marked active. 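Calls use total luciferase alone and ignore viability, so some active siRNAs may act by altering cell number.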 A number with no mark means an inactive call. The numbers tell different reagents against one gene apart. Further read-outs or replicates are left out here. No sequences are given here.

Assay: 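Knock-downs that increase output of a recombinant reporter protein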 (primary screen)
Cells: human HEK293 embryonic kidney cells stably expressing firefly luciferase (HEK-CMV-Luc2-Hygro)
Reagent: single siRNA against human genes, 0.8 pmol siRNA per well
Time to read-out: 72 h
Read-out: 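Luciferase light (ONE-Glo) measured on one replicate plate set and viability (CellTiter-Glo) on the other, scaled to a negative control siRNA, with robust z-scores and luciferase per cell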
Reading the numbers: total luciferase, z-score: higher = more reporter protein produced
Active means: 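Active when the median/MAD z-score for overall luciferase is greater than 3; a gene was taken forward for validation with new siRNAs if at least two of its three siRNAs passed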
Meaning of the calls: active = raised luciferase; inactive = no rise

{"Gene":"BAIAP2L1 (BAR/IMD domain containing adaptor protein 2 like 1)","siRNA no.":1,"total luciferase, z-score":1.12}
{"Gene":"BAIAP2L1 (BAR/IMD domain containing adaptor protein 2 like 1)","siRNA no.":2,"total luciferase, z-score":1.41}
{"Gene":"BAIAP2L1 (BAR/IMD domain containing adaptor protein 2 like 1)","siRNA no.":3,"total luciferase, z-score":-0.781}
{"Gene":"KRT34 (keratin 34)","siRNA no.":1,"total luciferase, z-score":0.228}
{"Gene":"KRT34 (keratin 34)","siRNA no.":2,"total luciferase, z-score":-0.418}
{"Gene":"KRT34 (keratin 34)","siRNA no.":3,"total luciferase, z-score":0.378}
{"Gene":"PAQR6 (progestin and adipoQ receptor family member 6)","siRNA no.":1,"total luciferase, z-score":-0.199}
{"Gene":"PAQR6 (progestin and adipoQ receptor family member 6)","siRNA no.":2,"total luciferase, z-score":-0.106}
{"Gene":"PAQR6 (progestin and adipoQ receptor family member 6)","siRNA no.":3,"total luciferase, z-score":-0.068}
{"Gene":"SH2D2A (SH2 domain containing 2A)","siRNA no.":1,"total luciferase, z-score":-0.77}
{"Gene":"SH2D2A (SH2 domain containing 2A)","siRNA no.":2,"total luciferase, z-score":1.03}
{"Gene":"SH2D2A (SH2 domain containing 2A)","siRNA no.":3,"total luciferase, z-score":-0.153}
{"Gene":"OR5K3 (olfactory receptor family 5 subfamily K member 3)","siRNA no.":1,"total luciferase, z-score":-2.46}
{"Gene":"OR5K3 (olfactory receptor family 5 subfamily K member 3)","siRNA no.":2,"total luciferase, z-score":-0.11}
{"Gene":"OR5K3 (olfactory receptor family 5 subfamily K member 3)","siRNA no.":3,"total luciferase, z-score":-1.87}
{"Gene":"POP7 (POP7 ribonuclease P/MRP subunit)","siRNA no.":1,"total luciferase, z-score":-0.392}
{"Gene":"POP7 (POP7 ribonuclease P/MRP subunit)","siRNA no.":2,"total luciferase, z-score":-0.497}
{"Gene":"POP7 (POP7 ribonuclease P/MRP subunit)","siRNA no.":3,"total luciferase, z-score":1.38}
{"Gene":"HDGFL1 (HDGF like 1)","siRNA no.":1,"total luciferase, z-score":-0.0894}
{"Gene":"HDGFL1 (HDGF like 1)","siRNA no.":2,"total luciferase, z-score":-0.776}
{"Gene":"HDGFL1 (HDGF like 1)","siRNA no.":3,"total luciferase, z-score":-0.0716}

Quoted from the listing, 2 entries:
{"Gene":"POP7 (POP7 ribonuclease P/MRP subunit)","siRNA no.":2,"total luciferase, z-score":-0.497}
{"Gene":"POP7 (POP7 ribonuclease P/MRP subunit)","siRNA no.":3,"total luciferase, z-score":1.38}
